Test [1] deals with JNK3 (mouse (endogenous in cortical synaptosomes)) (UniProt Q61831). Put plainly: co-IP; precipitation of the single isoforms JNK2 or JNK3 from purified cortical synaptosomal lysates of adult mice (500 ug of total lysate); Syntaxin-2 and Snap25 detected by western blotting. (In western blotting, separated proteins are transferred to a membrane and probed.)
Test [2] concerns the target JNK2 (mouse (endogenous in cortical synaptosomes)) (UniProt Q9WTU6). Described as above.

The chains behind the UniProt entries cited, without tags or fusion partners.
UniProt Q61831: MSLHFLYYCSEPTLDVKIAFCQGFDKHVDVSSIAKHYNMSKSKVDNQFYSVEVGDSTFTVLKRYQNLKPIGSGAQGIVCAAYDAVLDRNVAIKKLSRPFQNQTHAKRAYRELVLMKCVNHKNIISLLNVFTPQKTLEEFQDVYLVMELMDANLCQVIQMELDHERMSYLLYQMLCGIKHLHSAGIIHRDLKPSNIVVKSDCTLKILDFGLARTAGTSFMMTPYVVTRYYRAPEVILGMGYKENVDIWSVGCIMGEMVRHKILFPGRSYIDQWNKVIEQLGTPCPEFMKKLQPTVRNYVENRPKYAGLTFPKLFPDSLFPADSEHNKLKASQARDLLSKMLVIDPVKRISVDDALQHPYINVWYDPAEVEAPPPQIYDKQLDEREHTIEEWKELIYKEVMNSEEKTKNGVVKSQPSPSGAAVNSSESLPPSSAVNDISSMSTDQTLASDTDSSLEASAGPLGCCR
UniProt P60879: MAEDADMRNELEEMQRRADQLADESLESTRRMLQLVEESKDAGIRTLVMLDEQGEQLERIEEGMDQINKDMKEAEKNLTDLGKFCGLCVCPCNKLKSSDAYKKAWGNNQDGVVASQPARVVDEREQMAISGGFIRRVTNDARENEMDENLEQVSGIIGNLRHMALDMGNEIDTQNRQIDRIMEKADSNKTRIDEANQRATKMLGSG

These are yes or no findings as the source states them, for the method shown. Binding seen in cells or lysates may run through a third protein. Some results given as binding are weak or reduced against the parent protein; the word gives no strength.

As for Snap25 (from UniProt P60879 1-206), the binding entry in test [1] and in test [2] was “binds” throughout.

B1: Syntaxin-2 (protein, UniProt Q00262 1-289)
chain: MRDRLPDLTACRTNDDGDTAVVIVEKDHFMDGFFHQVEEIRSSIARIAQHVEDVKKNHSIILSAPNPEGKIKEELEDLDKEIKKTANRIRGKLKSIEQSCDQDENGNRTSVDLRIRRTQHSVLSRKFVDVMTEYNEAQILFRERSKGRIQRQLEITGRTTTDDELEEMLESGKPSIFISDIISDSQITRQALNEIESRHKDIMKLETSIRELHEMFMDMAMFVETQGEMVNNIERNVVNSVDYVEHAKEETKKAIKYQSKARRKKWIIAAVAVAVIAVLALIIGLSVGK
Regarding B1, the binding entry in test [1] and in test [2] was “binds” each time.

The values are drawn from paper PMC5359460.
